Experimental data as given in PubChem BioAssay AID624291 (National Center for Advancing Translational Sciences (NCATS), 2012).
Out of some 350,000 compounds screened, about 220 (0.063%) were called active. The shares of active, inactive and inconclusive entries below differ from those in the screen. The call rests on the fitted dose curve; in most records, active means well fitted activation curve with a large enough effect; inconclusive means small, poorly fitted or top-dose-only effect; inactive means no such curve, though single readings can be large or run the other way. Potencies beside an inconclusive call are fits to weak or partial responses and may not hold up.

Test: qHTS for Activators of Integrin-Mediated Alleviation for Muscular Dystrophy; further: nearly all actives have a fitted effect of over 60% in size;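 on activation: 100% = response of the positive control SU9516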
Conditions: alpha7betagal myoblasts, beta-gal FDG fluorescence, 48 h; activation: at 38.3 µM (top of the series)
Outline: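 Alpha7betagal+/- myoblasts (passage 13) were plated 16-24 hr, then exposed to compounds (1:260 dilution of DMSO stock) for 48 hours at 37C. After MPER lysis, β-galactosidase reporter activity was read as FDG fluorescence (ex 480/em 540) after 30 minutes.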
Potency means the concentration at half of the fitted maximal effect.

Row | Structure (SMILES) | Potency | activation
1 | COc1ccc(N2C(=O)C3CC(C)=C(C)CC3C2=O)c(OC)c1 (stereo unspecified) | inactive | –
2 | COc1ccc2c(c1)-c1c(ssc1=S)C(C)(C)N2 | inconclusive: 11.2 µM [activator, partial curve, poor fit] | –
3 | Cc1ccc(CNC(=O)CCc2nc3ccccc3c(=O)[nH]2)cc1 | inconclusive: 28.2 µM [activator, single point] | –
4 | Cc1ccc(C)c(NC(=S)NCCc2c[nH]c3ccccc23)c1 | inconclusive: 28.2 µM [activator, single point] | –
5 | O=C(CCCOc1ccccc1)Nc1ccccc1C(F)(F)F | – | inconclusive: -54.4% [activator]
6 | COc1ccc(C(=O)n2cnc3ccccc32)cc1[N+](=O)[O-] | inconclusive: 2 µM [activator, single point] | –
7 | Cc1nn2c(COc3ccc(NC(=O)C(C)C)cc3)nnc2c2ccccc12 | inactive | –
8 | O=C(NCC1CCCO1)c1ccc(Cn2c(=S)[nH]c3ccccc3c2=O)cc1 (stereo unspecified) | inactive | –
9 | Cc1ccc(S(=O)(=O)Oc2ccccc2/C=N/Nc2ccc(C(=O)O)cc2)cc1 | inconclusive: 2.51 µM [activator, partial curve, poor fit] | –
10 | COC(CNC(=O)C1CCCN1C(=O)OCc1ccccc1)OC (stereo unspecified) | inactive | –
11 | O=C(OCn1nnc2ccccc2c1=O)C1COc2ccccc2O1 (stereo unspecified) | inconclusive: 22.4 µM [activator, single point] | –
12 | Nc1nc(CN2CCN(C(c3ccccc3)c3ccccc3)CC2)nc(Nc2ccccc2)n1 | inactive | –
13 | COc1ccc(CC(CC(=O)O)C(=O)Nc2ccc(Cl)c(Cl)c2)cc1 (stereo unspecified) | inconclusive: 11.2 µM [activator, single point] | –
14 | O=C(Nc1ccc(SC(F)F)cc1)c1cc(-c2ccncc2)nc2ccccc12 | inconclusive: 1.41 µM [activator, single point] | –
15 | O=C(COc1ccc(Cl)cc1)NCCCNC(=O)c1cccnc1 | inconclusive: 10 µM [activator, partial curve, poor fit] | –
16 | CC(C)Nc1nc(Cl)nc(N(C#N)CN2C(=O)c3ccccc3C2=O)n1 | inconclusive: 2 µM [activator, full curve, poor fit] | –
17 | Cc1cc(NS(=O)(=O)c2ccc(NC(=O)/C=C/c3ccccc3)cc2)no1 | inconclusive: 11.2 µM [activator, single point] | –
18 | CN(CC(=O)Nc1ccccc1Cl)C(=O)c1ccc(N2CCCCCC2)c([N+](=O)[O-])c1 | inconclusive: 5.01 µM [activator, single point] | –
19 | COc1ccc(C2C(C(=O)c3ccccc3)=C(C)Nc3nc4ccccc4n32)c(OC)c1 (stereo unspecified) | inactive | –
20 | CCN(C(=O)c1cc2c(=O)[nH]c3ccc(C)cc3c2s1)c1ccccc1F | inconclusive: 0.447 µM [activator, full curve, poor fit] | –
21 | CC1CCN(CCCn2c(=S)[nH]c3ccccc3c2=O)CC1 | inactive | –
22 | CNc1cc(C)nc(N2CCOCC2)n1 | inconclusive: 12.6 µM [activator, single point] | –

Row | Structure (SMILES) | Potency | activation
23 | O=C(CNC(=O)c1ccccc1F)c1ccccc1 | inconclusive: 17.8 µM [activator, partial curve, poor fit] | –
24 | Cc1cc(C)n(-c2nc3ccccc3nc2N2CCN(C(=O)c3ccc(Cl)cc3)CC2)n1 | inactive | –
25 | COc1ccc(CCNC(=S)NC(=O)c2ccccc2)cc1C | inconclusive: 12.6 µM [activator, single point] | –
26 | CSc1nc(O)c(N=Nc2ccc(F)cc2F)c(=O)[nH]1 | inconclusive: 2.24 µM [activator, full curve, poor fit] | –
27 | COc1cccc(CN2CCNC(=O)C2CC(=O)NCCc2ccccn2)c1 (stereo unspecified) | inconclusive: 8.91 µM [activator, partial curve, poor fit] | –
28 | COCCNC(=O)c1ccc(N2CC3CC(C2)c2cccc(=O)n2C3)c(NC(=O)c2ccc(Br)o2)c1 (stereo unspecified) | inconclusive: 3.98 µM [activator, single point] | –
29 | O=C1CCCCCN1C(=O)c1ccccc1 | inactive | –
30 | CN(C(=O)CS(=O)(=O)c1cn(CC(=O)N2CCCC2)c2ccccc12)c1ccccc1 | inactive | –
31 | COc1ccc(CNC(=O)c2ccccc2C(=O)O)cc1 | inconclusive: 7.94 µM [activator, partial curve, poor fit] | –
32 | COc1ccccc1NC(=O)CN(Cc1ccco1)C(=O)c1cncc(Br)c1 | inconclusive: 5.01 µM [activator, single point] | –
33 | CCCCn1c(N)c(N(C)C(=O)c2ccccc2Oc2ccccc2)c(=O)[nH]c1=O | inconclusive: 5.01 µM [activator, single point] | –
34 | CCOC(=O)C1C(CC)NC(=S)NC1(C)O (stereo unspecified) | inconclusive: 3.55 µM [activator, single point] | –
35 | Cc1ccccc1NS(=O)(=O)c1ccc(C(=O)N2CCCCCCC2)cc1 | inconclusive: 5.62 µM [activator, partial curve, poor fit] | –
36 | Cc1cc(=O)c2ccc3ccccc3c2[nH]1 | inconclusive: 20 µM [activator, single point] | –
37 | O=C1N/C(=C\c2ccccc2)c2ccccc21 | inactive | –
38 | Cc1ccc(NC(=O)c2ccc(NCCCN3CCOCC3)c([N+](=O)[O-])c2)cc1Cl | inactive | –
39 | CCN(CC)CCCNC(=O)CCC(=O)Nc1ccc2nc(N3CCCCC3)cc(C)c2c1 | inactive | –
40 | Cc1noc(C)c1C(=O)NNc1ccc(C(C)C)cc1 | inconclusive: 3.16 µM [activator, single point] | –
41 | CCC(=O)N1CCc2cc(S(=O)(=O)NC(Cc3ccccc3)C(=O)O)ccc21 (stereo unspecified) | inconclusive: 28.2 µM [activator, partial curve, poor fit] | –
42 | COc1ccc(CCNC(=O)C2CCCN(c3ncnc4c3nc3n4CCCCC3)C2)c(OC)c1 (stereo unspecified) | – | inconclusive: 16.1% [activator]
43 | COC(=O)CN1C(=S)N(c2ccc(OC)cc2)C(=O)/C1=C/c1cccs1 | inconclusive: 11.2 µM [activator, partial curve, poor fit] | –
44 | COC(=O)c1sccc1NC(=O)Nc1ccc(F)cc1F | inconclusive: 4.47 µM [activator, single point] | –

Grouped by structure: the entries above with bromine (2)
Row | Structure (SMILES) | Potency | activation
28 | COCCNC(=O)c1ccc(N2CC3CC(C2)c2cccc(=O)n2C3)c(NC(=O)c2ccc(Br)o2)c1 (stereo unspecified) | inconclusive: 3.98 µM [activator, single point] | –
32 | COc1ccccc1NC(=O)CN(Cc1ccco1)C(=O)c1cncc(Br)c1 | inconclusive: 5.01 µM [activator, single point] | –

Next records.

Row | Structure (SMILES) | Potency | activation
45 | CCOc1ccc(CN(C)C(=O)c2ccc3c(c2)NC(=O)C(C)S3)cc1OC (stereo unspecified) | inconclusive: 3.55 µM [activator, single point] | –
46 | CCC(c1nnnn1Cc1ccc(OC)cc1)N(CCCO)Cc1cc2cc3c(cc2[nH]c1=O)OCO3 (stereo unspecified) | inactive | –
47 | NS(=O)(=O)c1ccc(CNC(=O)Cc2ccsc2)cc1 | inconclusive: 3.55 µM [activator, single point] | –
48 | O=C(Nc1cc(Cl)ccc1N1CCCC1)C1=COCCO1 | inconclusive: 0.891 µM [activator, partial curve, poor fit] | –
49 | Cc1cc(C(=O)Nc2cc(Br)ccc2O)on1 | inconclusive: 5.01 µM [activator, single point] | –
50 | C/C(=N\NC(=S)NCc1ccccc1)c1ccc(Br)cc1 | inconclusive: 8.91 µM [activator, partial curve, poor fit] | –
51 | O=C(O)CCCCCNC(=O)/C(=C\c1ccco1)NC(=O)c1ccco1 | inconclusive: 10 µM [activator, single point] | –
52 | Cc1cc(C)nc(NS(=O)(=O)c2ccc(NC(=O)C(C)C)cc2)n1 | inconclusive: 28.2 µM [activator, single point] | –
53 | COc1ccc(C2=NOC(CNC(=O)c3ccccc3Br)C2)c(OC)c1 (stereo unspecified) | inactive | –
54 | CCCCC(=O)Nc1ccc(Br)cc1C(=O)O | inconclusive: 1 µM [activator, partial curve, poor fit] | –
55 | C/C(=N\NC(=O)c1ccc(N2CCCC2=O)cc1)c1ccncc1 | inconclusive: 20 µM [activator, single point] | –
56 | COc1ccc(CCNC(=O)CCN2C(=O)[C@@H]3Cc4ccccc4CN3C2=O)cc1 | inconclusive: 2.51 µM [activator, full curve, poor fit] | –
57 | CCOc1ccc(Nc2nc(-c3cccnc3)cs2)cc1 | inconclusive: 1.78 µM [activator, full curve, poor fit] | –
58 | Cc1ccc(-n2ncc3c2CC(C)(C)CC3NC(=O)c2cc[n+]([O-])cc2)cc1 (stereo unspecified) | inconclusive: 11.2 µM [activator, partial curve, poor fit] | –
59 | Cc1c(NC(=O)N(C)c2ccccc2)c(=O)n(-c2ccccc2)n1C | inconclusive: 14.1 µM [activator, single point] | –
60 | Cc1ccc(C(=O)NCCc2nnc3ccc(NCCCN4CCOCC4)nn23)cc1 | inconclusive: 28.2 µM [activator, single point] | –
61 | CC(C)(C)c1ccc(OCCC(=O)OCC(=O)NC2CC2)cc1 | inconclusive: 5.01 µM [activator, single point] | –
62 | O=C1OC(c2cc(Br)c(O)c(Br)c2)c2ccccc21 (stereo unspecified) | inconclusive: 28.2 µM [activator, single point] | –
63 | CC(C)(C)NC(=O)CSc1nnc(NC(=O)c2ccccc2Cl)s1 | inconclusive: 3.98 µM [activator, single point] | –
64 | Cc1ccc(F)cc1NC(=O)N1c2ccccc2NC(=O)CC1C (stereo unspecified) | inconclusive: 0.447 µM [activator, partial curve, poor fit] | –
65 | CCOC(=O)c1nn(-c2ccc(F)cc2)c2nc(Nc3ccccc3)cc(=O)n12 | inconclusive: 3.98 µM [activator, single point] | –
66 | CC(C)(C)c1cc2nc3c(c(=O)n2[nH]1)CN(Cc1ccccc1)C3=O | inconclusive: 2.82 µM [activator, single point] | –
